According to article PMC4377080, “Probing Bunyavirus N protein oligomerisation using mass spectrometry” (Rapid Communications in Mass Spectrometry, 2014):
Results are given in words; binding and its absence hold for the method and conditions named.

Sequences of proteins named here, by UniProt entry; tags and fusion partners are left off.
UniProt P16495: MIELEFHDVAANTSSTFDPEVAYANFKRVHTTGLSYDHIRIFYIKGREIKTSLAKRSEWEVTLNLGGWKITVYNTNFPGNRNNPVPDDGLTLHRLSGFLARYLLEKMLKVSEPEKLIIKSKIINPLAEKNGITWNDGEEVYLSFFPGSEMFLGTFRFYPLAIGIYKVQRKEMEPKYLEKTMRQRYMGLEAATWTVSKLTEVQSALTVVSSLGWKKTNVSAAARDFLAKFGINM

Legend:
[1] = target: Bunyamwera virus nucleocapsid (N) protein (Bunyamwera virus) (UniProt P16495); assay: native MS; nano-ESI-MS of BUNV-N and SBV-N mixed 1:1 (molar) in 50 mM ammonium acetate pH 6.8, in the absence of RNA; both purified
[2] = target: Bunyamwera virus nucleocapsid (N) protein (Bunyamwera virus) (UniProt P16495); assay: condition: only after removal of the bound endogenous RNA with high ionic strength buffers; 10 μM; native MS; nano-ESI-MS of high salt-treated (RNA-free) N protein, 10 μM, 50 mM ammonium acetate pH 6.8; both purified

“Bunyamwera virus nucleocapsid (N) protein (from UniProt P16495 1-233)” was tested, and the binding [1] was “no binding (condition: in the absence of RNA)” and the binding [2] was “no binding”.
